For at least one entry, the source does not settle the construct or the ends of the probe. For some of these results: A weaker result is weaker than the reference pair of the same experiment.
Key:
[1] = test system: Rabbit anti-human endothelin receptor A antibody, second extracellular loop (ETA-AB) (Oryctolagus cuniculus); assay: ELONA; details: binding shown with either partner immobilized; 0.1 uM aptamer coating saturating; purified native protein; protein details: Acris Antibodies SP 41222P; label: biotin; single-stranded DNA; variant of thrombin-aptamer ARC183
[2] = test system: Rabbit anti-human endothelin receptor A antibody, second extracellular loop (ETA-AB) (Oryctolagus cuniculus); assay: pull-down; details: aptamer on NHS-Sepharose column; spiked human serum 50 nM; eluted with 3 M KSCN; purified native protein; protein details: Acris Antibodies SP 41222P; single-stranded DNA
[3] = test system: Human IgG-1 (Homo sapiens); assay: binding assay; details: data not shown; lowest of IgG subclasses; purified native protein; single-stranded DNA
[4] = test system: Human IgG-2 (Homo sapiens); assay: binding assay; details: data not shown; lower affinity than IgG-3; purified native protein; single-stranded DNA
[5] = test system: Human IgG-3 (Homo sapiens); assay: binding assay; details: data not shown; highest affinity among human IgG subclasses; 73 nM IgG-3 did not affect beta1-AAB neutralization; purified native protein; single-stranded DNA
[6] = test system: Human IgG-4 (Homo sapiens); assay: binding assay; details: data not shown; lower affinity than IgG-3, only marginal difference to IgG-2 and IgG-1; purified native protein; single-stranded DNA
[7] = test system: Rabbit anti-human endothelin receptor A antibody, second extracellular loop (ETA-AB) (Oryctolagus cuniculus); assay: activity in cells; details: 100 nM aptamer completely neutralized ETA-AB effect; purified native protein; protein details: Acris Antibodies SP 41222P; single-stranded DNA

Sequence | binding result [1] | binding result [2] | binding result [3] | binding result [4] | binding result [5] | binding result [6] | functional effect of the aptamer [7]
GGTTGGTGTGGTTGG [biotinylated thrombin-aptamer] | binds | – | – | – | – | – | –
GGTTGGTGTGGTTGG [thrombin-aptamer ARC183] | – | binds | binds more weakly | binds more weakly | binds | binds more weakly | active

Reference: patent US20140155466
